Values of other authors in US20140308657A1, “SERINE PROTEASE INHIBITOR KAZAL ANTIBODIES” (priority 2010, published 2014).
At least one structure is not confirmed: it was looked up by name or label, or the drawing left a doubt.

Settings: cited from earlier work

SMILES: Cl.NCCc1ccc(S(=O)(=O)F)cc1 [pefabloc]
- block of BFA/CHX induced apoptosis: blocked
